Where a name gives a salt, the structure may show the parent alone. This is one part of the list. Most values lie within the scatter of the assay; repeated measurements hardly agree.

For the experiment, the system named is Brugia pahangi adult female. Nature of the experiment: motility inhibition on day 3 relative to DMSO vehicle; higher = more active. As to conditions: 10 µM; 3 days.
As to `O=C1N=C(O)NC1(c1ccccc1)c1ccccc1` [Phenytoin sodium], the “motility inhibition on day 3” value turned out to be 6.17%.
Turning to `CC(=O)OCC(=O)[C@@]1(O)[C@H](OC(C)=O)C[C@H]2[C@@H]3CCC4=CC(=O)C=C[C@]4(C)[C@@]3(F)[C@@H](O)C[C@@]21C` [triamcinolone diacetate], the “motility inhibition on day 3” value was found to be 11.3%.
Consider `CC(C)Cn1cnc2c(N)nc3ccccc3c21` [imiquimod], for which the “motility inhibition on day 3” value came out at 31.9%.
On to `NC(=O)N1c2ccccc2CC(=O)c2ccccc21` [oxcarbazepine], for which the “motility inhibition on day 3” value was < 0%.
On to `Cc1c(NC(C)C)c(=O)n(-c2ccccc2)n1C` [ramifenazone], for which the “motility inhibition on day 3” value was < 0%.
For `NCCc1cc[nH]n1` [betazole hydrochloride] the value was < 0%.
For `COc1ccc([C@@H]2Sc3ccccc3N(CCN(C)C)C(=O)[C@@H]2OC(C)=O)cc1` [diltiazem hydrochloride] the value was 36%; for `COc1ccc([C@@H]2Sc3ccccc3N(CCN(C)C)C(=O)[C@@H]2OC(C)=O)cc1` [Diltiazem hydrochloride], 28.4%.
Regarding `Cc1cn([C@H]2C[C@H](N=[N+]=[N-])[C@@H](CO)O2)c(=O)[nH]c1=O` [zidovudine [azt]], the “motility inhibition on day 3” value was 11.5%.
For `CCCCCCCCCCOc1cc2c(O)c(C(=O)OCC)cnc2cc1OCC` [decoquinate] the value was 7.54%; for `CN(C)CCN(Cc1ccc(Cl)cc1)c1ccccn1` [chloropyramine hydrochloride], 23.7%.
Take `NS(=O)(=O)Cc1noc2ccccc12` [Zonisamide]: the “motility inhibition on day 3” value was 1.13%.
For `CC(C[N+](C)(C)C)OC(N)=O` (centres undefined) [Bethanechol chloride], the “motility inhibition on day 3” value is 23.7%.
Regarding `NCCC(O)(P(=O)(O)O)P(=O)(O)O` [Pamidronic acid], the “motility inhibition on day 3” value came out at 7.81%.
For `COc1ccc(CN(CCN(C)C)c2ncccn2)cc1` [thonzylamine hydrochloride] the value was 7.7%; for `NCC(=O)CCC(=O)O` [aminolevulinic acid hydrochloride], 16.3%; for `CC(=O)O[C@H]1C[C@@H]2CC[C@@H]3[C@H](CC[C@@]4(C)[C@H]3C[C@H](N3CC[N+](C)(C)CC3)[C@@H]4OC(C)=O)[C@@]2(C)C[C@@H]1N1CC[N+](C)(C)CC1` [Pipecuronium Bromide], 16.5%.
Take `NC(=O)c1ccc[n+]([C@@H]2O[C@H](COP(=O)([O-])OP(=O)(O)OC[C@H]3O[C@@H](n4cnc5c(N)ncnc54)[C@H](O)[C@@H]3O)[C@@H](O)[C@H]2O)c1` [nadide]: the “motility inhibition on day 3” value was < 0%.
For `O=C(CCCN1CCC(O)(c2ccc(Cl)cc2)CC1)c1ccc(F)cc1` [Haloperidol] the value was < 0%; for `Cc1ccc(C)c(OCCCC(C)(C)C(=O)O)c1` [gemfibrozil], 11.5%.
For `O=C(O)C[C@H](O)C[C@H](O)/C=C/c1c(C2CC2)nc2ccccc2c1-c1ccc(F)cc1` [pitavastatin calcium] the value was 18.9%; for `O=C(O)/C=C/C(=O)O` [fumaric acid], 2.35%; for `C[C@]12CCC(=O)C=C1C=C[C@@H]1[C@@H]2CC[C@@]2(C)[C@H]1CC[C@@]21CCC(=O)O1` [canrenone], 7.07%.
For `CC1(C)[C@@H](O)CC[C@]2(C)[C@H]3C(=O)C=C4[C@@H]5C[C@@](C)(C(=O)O)CC[C@]5(C)CC[C@@]4(C)[C@]3(C)CC[C@@H]12` [enoxolone] the value was < 0%; for `COC(=O)CCc1ccc(OCC(O)CNC(C)C)cc1` (centres undefined), < 0%; for `CN1C(C(=O)Nc2ccccn2)=C(O)c2ccccc2S1(=O)=O` [piroxicam], < 0%.
Take `COc1c(C)c2c(c(O)c1C/C=C(\C)CCC(=O)OCCN1CCOCC1)C(=O)OC2` [mycophenolate mofetil]: the “motility inhibition on day 3” value came to 6.26%.
For `COCCOC(=O)C1=C(C)NC(C)=C(C(=O)OC(C)C)C1c1cccc([N+](=O)[O-])c1` (centres undefined) [Nimodipine] the value was 47.3%.
For `NCCS` [Cysteamine hydrochloride] the value was 18.2%.
